Measurements from patent US7144908B2, “Agonists of beta-adrenoceptors” (Glaxo Group Limited, priority 2002, dated 2006).
Structures can show the parent of a compound that is named as a salt. Some entries share one result that the patent states for a list of compounds. For some assays here: For at least one compound, name, drawing or mass did not settle the structure.

Protein sequences, listed by entry. Tags and fused reporters are not part of them.
UniProt P07550, whole entry: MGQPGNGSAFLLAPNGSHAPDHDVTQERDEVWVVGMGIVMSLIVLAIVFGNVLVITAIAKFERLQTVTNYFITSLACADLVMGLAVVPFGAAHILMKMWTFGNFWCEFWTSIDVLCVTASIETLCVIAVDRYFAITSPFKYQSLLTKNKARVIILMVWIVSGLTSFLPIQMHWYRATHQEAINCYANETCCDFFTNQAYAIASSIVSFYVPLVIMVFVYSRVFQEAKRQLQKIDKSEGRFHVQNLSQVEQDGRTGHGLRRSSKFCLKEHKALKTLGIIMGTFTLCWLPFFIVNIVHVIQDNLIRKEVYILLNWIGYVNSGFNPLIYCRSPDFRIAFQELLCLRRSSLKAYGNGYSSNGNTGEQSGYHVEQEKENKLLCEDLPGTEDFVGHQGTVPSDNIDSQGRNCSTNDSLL

What follows are compounds tested against T1, human beta 2 adrenoreceptor (Homo sapiens, UniProt P07550) (assay: frog melanophores transfected with the human beta 2 adrenoreceptor, pigment dispersal (light transmittance)). Conditions: beta 2 agonist activity, pigment dispersal after melatonin.
T1 construct: expressed in transfected cells; host or cells: frog melanophores
Type: cell-based
`O=C1CNC(=O)N1c1cccc(CCCCCCOCCCCCCNC[C@H](O)c2ccc(O)c(CO)c2)c1` [Example 14, 3-[3-(6-{[6-({(2R)-2-Hydroxy-2-[4-hydroxy-3-(hydroxymethyl)phenyl]ethyl}amino)hexyl]oxy}hexyl)phenyl]imidazolidine-2,4-dione acetate] gave an IC50 of less than 1 µM. For `CN1C(=O)CN(c2cccc(CCCCOCCCCCCNC[C@H](O)c3ccc(O)c(CO)c3)c2)C1=O` [Example 25, 1-[3-(4-{[6-({(2R)-2-Hydroxy-2-[4-hydroxy-3-(hydroxymethyl)phenyl]ethyl}amino)hexyl]oxy}butyl)phenyl]-3-methylimidazolidine-2,4-dione acetate], the IC50 was less than 1 µM. With `O=c1[nH]ccn1-c1cccc(CCCCOCCCCCCNC[C@H](O)c2ccc(O)c(CO)c2)c1` [Example 19, 1-[3-(4-{[6-({(2R)-2-Hydroxy-2-[4-hydroxy-3-(hydroxymethyl)phenyl]ethyl}amino)hexyl]oxy}butyl)phenyl]-1,3-dihydro-2H-imidazol-2-one] the IC50 was less than 1 µM. For `O=C1CNC(=O)N1c1cccc(CCCCOCCCCCCNC[C@H](O)c2ccc(O)c(CO)c2)c1` [Example 1, 3-[3-(4-{[6-([(2R)-2-Hydroxy-2-[4-hydroxy-3-(hydroymethyl)phenyl]ethyl}amino)hexyl]oxy}butyl)phenyl]imidazolidine-2,4-dione acetate], the IC50 was less than 1 µM. `CS(=O)(=O)N1CC(=O)N(c2cccc(CCCOCCCCCCCNC[C@H](O)c3ccc(O)c(CO)c3)c2)C1=O` [Example 21, 3-[3-(3-{[7-({(2R)-2-Hydroxy-2-[4-hydroxy-3-(hydroxymethyl)phenyl]ethyl}amino)heptyl]oxy}propyl)phenyl]-1-(methylsulfonyl)imidazolidine-2,4-dione acetate] was tested, and the IC50 was less than 1 µM. For `O=C1CN(c2cccc(CCCCOCCCCCCNC[C@H](O)c3ccc(O)c(CO)c3)c2)C(=O)N1` [Example 4, 1-[3-(4-{[6-({(2R)-2-Hydroxy-2-[4-hydroxy-3-(hydroxymethyl)phenyl]ethyl}amino)hexyl]oxy}butyl)phenyl]imidazolidine-2,4-dione formate], the IC50 was less than 1 µM. Work on `O=C1CNC(=O)N1c1ccccc1CCCCOCCCCCCNC[C@H](O)c1ccc(O)c(CO)c1` [Example 10, 3-[2-(4-{[6-({(2R)-2-Hydroxy-2-[4-hydroxy-3-(hydroxymethyl)phenyl]ethyl}amino)hexyl]oxy}butyl)phenyl]imidazolidine-2,4-dione acetate] yielded an IC50 of less than 1 µM. In the case of `C[C@]1(Cc2cccc(CCCCOCCCCCCNC[C@H](O)c3ccc(O)c(CO)c3)c2)NC(=O)NC1=O` [Example 15, (5R)-5-[3-(4-{[6-({(2R)-2-Hydroxy-2-[4-hydroxy-3-(hydroxymethyl)phenyl]ethyl}amino)hexyl]oxy}butyl)benzyl]-5-methylimidazolidine-2,4-dione acetate], the IC50 is reported as less than 1 µM. Work on `O=C1CNC(=O)N1Cc1cccc(CCCCOCCCCCCNC[C@H](O)c2ccc(O)c(CO)c2)c1` [Example 11, 3-[3-(4-{[6-({(2R)-2-Hydroxy-2-[4-hydroxy-3-(hydroxymethyl)phenyl]ethyl}amino)hexyl]oxy}butyl)benzyl]imidazolidine-2,4-dione acetate] yielded an IC50 of less than 1 µM. With `NC(=O)CN1C(=O)CN(c2cccc(CCCCOCCCCCCNC[C@H](O)c3ccc(O)c(CO)c3)c2)C1=O` [Example 27, 2-{3-[3-(4-{[6-({(2R)-2-Hydroxy-2-[4-hydroxy-3-(hydroxymethyl)phenyl]ethyl}amino)hexyl]oxy}butyl)phenyl]-2,5-dioxoimidazolidin-1-yl}acetamide acetate] the IC50 was less than 1 µM. Work on `CS(=O)(=O)N1CC(=O)N(c2cccc(CCCCOCCCCCCNC[C@H](O)c3ccc(O)c(CO)c3)c2)C1=O` [Example 30, 3-[3-(4-{[6-({(2R)-2-Hydroxy-2-[4-hydroxy-3-(hydroxymethyl)phenyl]ethyl}amino)hexyl]oxy}butyl)phenyl]-1-(methylsulfonyl)imidazolidine-2,4-dione acetate] yielded an IC50 of less than 1 µM. For `O=c1[nH][nH]c(=O)n1-c1cccc(CCCCOCCCCCCNC[C@H](O)c2ccc(O)c(CO)c2)c1` [Example 31, 4-[3-(4-{[6-({(2R)-2-Hydroxy-2-[4-hydroxy-3-(hydroxymethyl)phenyl]ethyl}amino)hexyl]oxy}butyl)phenyl]-1,2,4-triazolidine-3,5-dione acetate], the IC50 was less than 1 µM. `NC(=O)NC1NC(=O)N(Cc2cccc(CCCCOCCCCCCNC[C@H](O)c3ccc(O)c(CO)c3)c2)C1=O` (stereo partly drawn) [Example 23, N-{1-[3-(4-{[6({(2R)-2-Hydroxy-2-[4-hydroxy-3-(hydroxymethyl)phenyl]ethyl}amino)hexyl]oxy}butyl)benzyl]-2,5-dioxoimidazolidin-4-yl]urea acetate] was tested, and the IC50 was less than 1 µM. With `CC1(C)NC(=O)N(c2cccc(CCCCOCCCCCCNC[C@H](O)c3ccc(O)c(CO)c3)c2)C1=O` [Example 20, 3-[3-(4-{[6-({(2R)-2-Hydroxy-2-[4-hydroxy-3-(hydroxymethyl)phenyl]ethyl}amino)hexyl]oxy}butyl)phenyl]-5,5-dimethylimidazolidine-2,4-dione acetate] the IC50 was less than 1 µM. `O=C1CNC(=O)N1c1ccc(CCCCOCCCCCCNC[C@H](O)c2ccc(O)c(CO)c2)cc1` [Example 9, 3-[4-(4-{[6-({(2R)-2-Hydroxy-2-[4-hydroxy-3-(hydroxymethyl)phenyl]ethyl}amino)hexyl]oxy}butyl)phenyl]imidazolidine-2,4-dione acetate] showed an IC50 of less than 1 µM. `O=C1NCCN1c1cccc(CCCCOCCCCCCNC[C@H](O)c2ccc(O)c(CO)c2)c1` [Example 3, 1-[3-(4-{[6-({(2R)-2-Hydroxy-2-[4-hydroxy-3-(hydroxymethyl)phenyl]ethyl}amino)hexyl]oxy}butyl)phenyl]imidazolidine-2-one acetate] gave an IC50 of less than 1 µM. Compound `C[C@@]1(Cc2cccc(CCCCOCCCCCCNC[C@H](O)c3ccc(O)c(CO)c3)c2)NC(=O)NC1=O` [Example 16, (5S)-5-[3-(4-{[6-({(2R)-2-Hydroxy-2-[4-hydroxy-3-(hydroxymethyl)phenyl]ethyl}amino)hexyl]oxy}butyl)benzyl]-5-methylimidazolidine2,4-dione acetate] has an IC50 of less than 1 µM. `O=C1CN(Cc2ccccc2)C(=O)N1c1cccc(CCCCOCCCCCCNC[C@H](O)c2ccc(O)c(CO)c2)c1` [Example 29, 1-Benzyl-3-[3-(4-{[6-({(2R)-2-hydroxy-2-[4-hydroxy-3-(hydroxymethyl)phenyl]ethyl}amino)hexyl]oxy}butyl)phenyl]imidazolidine-2,4-dione acetate] gave an IC50 of less than 1 µM. Work on `O=C1NC(=O)C(Cc2ccc(CCCCOCCCCCCNCC(O)c3ccc(O)c(CO)c3)cc2)N1` (centres unmarked) [Example 18, 5-[4-(4-{[6-({(2)-2-Hydroxy-2-[4-hydroxy-3-(hydroxymethyl)phenyl]ethyl}amino)hexyl]oxy}butyl)benzyl]imidazolidine2,4-dione compound with formic acid (1:1)] yielded an IC50 of less than 1 µM. In the case of `O=C1CN(c2cccc(CCCOCCCCCCNC[C@H](O)c3ccc(O)c(CO)c3)c2)C(=O)N1` [Example 22, 1-[3-(3-{[6-({(2R)-2-Hydroxy-2-[4-hydroxy-3-(hydroxymethyl)phenyl]ethyl}amino)hexyl]oxy}propyl)phenyl]imidazolidine-2,4-dione acetate], the IC50 is reported as less than 1 µM. With `O=C1CNC(=O)N1c1cccc(CCCCCOCCCCCNC[C@H](O)c2ccc(O)c(CO)c2)c1` [Example 12, 3-[3-(5-{[5-({(2R)-2-Hydroxy-2-[4-hydroxy-3-(hydroxymethyl)phenyl]ethyl}amino)pentyl]oxy}pentyl)phenyl]imidazolidine-2,4-dione acetate] the IC50 was less than 1 µM. `CCOC(=O)CN1C(=O)CN(c2cccc(CCCCOCCCCCCNC[C@H](O)c3ccc(O)c(CO)c3)c2)C1=O` [Example 26, Ethyl {3-[3-(4-{[6-({(2R)-2-hydroxy-2-[4-hydroxy-3-(hydroxymethyl)phenyl]ethyl}amino)hexyl]oxy}butyl)phenyl]-2,5-dioxoimidazolidin-1-yl}acetate acetate] gave an IC50 of less than 1 µM. `O=C1CN(Cc2cccc(CCCCOCCCCCCNC[C@H](O)c3ccc(O)c(CO)c3)c2)C(=O)N1` [Example 28, 1-[3-(4-{[6-({(2R)-2-Hydroxy-2-[4-hydroxy-3-(hydroxymethyl)phenyl]ethyl}amino)hexyl]oxy}butyl)benzyl]imidazolidine-2,4-dione acetate] gave an IC50 of less than 1 µM. With `O=C1CNC(=O)N1c1cccc(CCCCOCCCCCCNC[C@@H](O)c2ccc(O)c(CO)c2)c1` [Example 8, 3-[3-(4-{[6-({(2S)-2-Hydroxy-2-[4-hydroxy-3-(hydroxymethyl)phenyl]ethyl}amino)hexyl]oxy}butyl)phenyl]imidazolidine-2,4-dione acetate] the IC50 was less than 1 µM. `NC(=O)CN1CC(=O)N(c2cccc(CCCCOCCCCCCNC[C@H](O)c3ccc(O)c(CO)c3)c2)C1=O` [Example 17, 2-{3-[3-(4-{[6-({(2R)-2-Hydroxy-2-[4-hydroxy-3-(hydroxymethyl)phenyl]ethyl}amino)hexyl]oxy}butyl)phenyl]-2,4-dioxoimidazolidin-1-yl}acetamide acetate] showed an IC50 of less than 1 µM. In the case of `O=C1CN(c2cccc(CCCCOCCCCCCNC[C@H](O)c3ccc(O)c(CO)c3)c2)C(=O)N1Cc1ccccc1` [Example 24, 3-Benzyl-1-[3-(4-{[6-({(2R)-2-hydroxy-2-[4-hydroxy-3-(hydroxymethyl)phenyl]ethyl{amino)hexyl]oxy}butyl)phenyl]imidazolidine-2,4-dione acetate], the IC50 is reported as less than 1 µM. `O=C1CNC(=O)N1c1cccc(CCCCCOCCCCCCNC[C@H](O)c2ccc(O)c(CO)c2)c1` [Example 13, 3-[3-(5-{[6-(}(2R)-2-Hydroxy-2-[4-hydroxy-3-(hydroxymethyl)phenyl]ethyl}amino)hexyl]oxy}pentyl)phenyl]imidazolidine-2,4-dione acetate] was tested, and the IC50 was less than 1 µM. Work on `O=C1CNC(=O)N1c1cccc(CCCOCCCCCCCNC[C@H](O)c2ccc(O)c(CO)c2)c1` [Example 2, 3-[3-(3-{[7-({(2R)-2-Hydroxy-2-[4-hydroxy-3-(hydroxymethyl)phenyl]ethyl}amino)heptyl]oxy}propyl)phenyl]imidazolidine-2,4-dione acetate] yielded an IC50 of less than 1 µM.

The compounds below were run against PDE4 (assay: PDE4 IC50 ratio: [3H]R-rolipram high affinity binding over low affinity PDE4 catalytic activity). Conditions: 1 nM [3H]R-rolipram binding; 1 μM [3H]-cAMP substrate.
Type: biochemical
With `COc1ccc([C@]2(C#N)CC[C@@H](C(=O)O)CC2)cc1OC1CCCC1` [cis 4-cyano-4-(3-cyclopentyloxy-4-methoxyphenyl)cyclohexan-1-carboxylic acid] the “IC50 ratio (IC50 for PDE4 form binding rolipram with high affinity divided by IC50 for form binding rolipram with low affinity)” value was no less than 0.1.
